Our source for the step yield values is US20110144001A1 (SANOFI-AVENTIS, priority 2008, published 2011).

This data set is described as follows: peptide synthesis. The following applies: late stage modification step, cyclic, sequence written open.

“Bis-Benzyl Derivative of Labyrinthopeptin A1” displayed a step yield of 17.5%.

Boc-Protected Labyrinthopeptin A1: the step yield turned out to be 40.8%.
